Source: PMC2515349
These are yes or no findings as the source states them, for the method shown. Binding seen in cells or lysates may run through a third protein. Binding can be weak; no strength is given.

Protein sequences, listed by entry. Tags and fused reporters are not part of them. Lines headed by an entry give the natural chain unless they say otherwise; changes in a name come on top.
UniProt P53618, whole entry, stated change not applied: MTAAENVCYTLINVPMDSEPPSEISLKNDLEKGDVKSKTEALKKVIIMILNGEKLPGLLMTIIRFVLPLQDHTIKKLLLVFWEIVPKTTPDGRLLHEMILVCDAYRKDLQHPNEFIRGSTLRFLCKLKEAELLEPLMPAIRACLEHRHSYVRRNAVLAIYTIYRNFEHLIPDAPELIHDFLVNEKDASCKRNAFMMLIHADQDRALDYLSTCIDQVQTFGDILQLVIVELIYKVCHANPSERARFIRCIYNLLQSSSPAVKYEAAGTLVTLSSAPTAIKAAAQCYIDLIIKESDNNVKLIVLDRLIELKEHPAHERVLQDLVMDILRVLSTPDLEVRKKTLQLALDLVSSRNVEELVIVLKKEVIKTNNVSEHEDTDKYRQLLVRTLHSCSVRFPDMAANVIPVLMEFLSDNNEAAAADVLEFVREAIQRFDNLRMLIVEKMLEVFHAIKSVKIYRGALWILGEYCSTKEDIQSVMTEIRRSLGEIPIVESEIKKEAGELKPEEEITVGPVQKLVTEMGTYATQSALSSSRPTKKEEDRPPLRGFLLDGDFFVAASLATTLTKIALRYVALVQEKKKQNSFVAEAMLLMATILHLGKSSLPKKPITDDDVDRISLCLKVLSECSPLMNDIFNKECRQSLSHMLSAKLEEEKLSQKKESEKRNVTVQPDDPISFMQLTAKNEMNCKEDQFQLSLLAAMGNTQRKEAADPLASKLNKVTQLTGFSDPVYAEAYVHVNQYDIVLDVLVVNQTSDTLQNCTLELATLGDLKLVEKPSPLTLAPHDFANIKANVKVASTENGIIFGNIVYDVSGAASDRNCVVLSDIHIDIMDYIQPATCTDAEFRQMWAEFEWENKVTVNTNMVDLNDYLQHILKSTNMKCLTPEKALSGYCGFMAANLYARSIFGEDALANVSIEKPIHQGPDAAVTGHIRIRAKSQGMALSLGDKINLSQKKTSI

Target: β-COP (human (endogenous in CEM)) (UniProt P53618)
Experiment: co-IP; CEM T cells transduced with adenovirus (Figure 7C) or concentrated MSCV (Figure 8E), 20 mM NH4Cl for 16 hours, not cross-linked; lysed in 1% digitonin, 100 mM NaCl, 50 mM Tris pH 7.0, 1 mM CaCl2, 1 mM MgCl2; precipitated with anti-β-COP M3A5 cross-linked to beads; western blot for Nef

| Substance | binding |
| --- | --- |
| HIV-1 Nef D123G (adenoviral) (from UniProt P03406) | binds |
| HIV-1 Nef V10EΔ17–26 (adenoviral) (from UniProt P03406) | binds weakly |
